Results taken from article PMC11527973, “Efficient characterization of multiple binding sites of small molecule imaging ligands on amyloid-beta, tau and alpha-synuclein” (European Journal of Nuclear Medicine and Molecular Imaging, 2024).
Some compounds share one wording; it may come from a single statement.

Test system: Aβ deposits (6E10 positive)
Test: Immunofluorescence staining and colocalization, arcAβ mouse brain
Conditions: for M1, fraction of A overlapping B / M2, fraction of B overlapping A: Manders' coefficient, arcAβ mouse, antibody (A) 6E10, ligand (B); for Ligand detection of Aβ deposits: arcAβ mice, cortical regions, costained with 6E10

Row | SMILES | M1, fraction of A overlapping B | M2, fraction of B overlapping A | Ligand detection of Aβ deposits
1 | O=C(O)Cc1cc(-c2ccc(-c3cc(CC(=O)O)c(-c4ccc(C(=O)O)s4)s3)s2)sc1-c1ccc(C(=O)O)s1 [HS-84] | 0.607 | 0.6 | 
2 | O=C(O)Cc1cc(-c2ccc(-c3cc(CC(=O)O)c(-c4ccc(C(=O)O)s4)s3)c3nsnc23)sc1-c1ccc(C(=O)O)s1 [HS-169] | 0.658 | 0.462 | confirmed the detection of parenchymal Aβ deposits
3 | O=C(O)Cc1cc(-c2ccc(-c3ccc(C(=O)O)s3)s2)sc1-c1ccc(-c2sc(-c3ccc(-c4ccc(C(=O)O)s4)s3)cc2CC(=O)O)s1 [h-FTAA, Hepta-formylthiophene acetic acid] | 0.553 | 0.425 | confirmed the detection of parenchymal Aβ deposits
